Experimental data: PubChem BioAssay AID652272 (Drosophila RNAi Screening Center, 2013)
Aim: 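Genome-wide knock-down search for components of Hedgehog signalling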 (primary screen). Cell system: Drosophila clone 8 (Cl8) cells. Knock-down reagent: long dsRNA against Drosophila genes. Measured: 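Plate reader light from a firefly reporter under a ptc promoter fragment that responds to Hedgehog, with Renilla light as transfection reference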. Reading the numbers: firefly Hh reporter signal: higher = more ptc reporter light; Renilla reference signal: higher = more Renilla control light. Call rule: 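Called a hit if the two-replicate mean z-score lies below -2 or above +3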. Calls: active = hit: reporter lowered or raised; inactive = not a hit.
In all, the deposit lists about 21,000 reagents; this is a random part of those with a known target gene and a result. Of all reagents, 503 (2.4%) were called active. 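Raw plate light values, not normalised; calls rest on replicate z-scores that were not deposited; hits include reporter decreases as well as increases.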 Names joined by + are all predicted targets of the reagent. Not stated in the record: the amount of reagent, the time to read-out.

| Gene | amplicon | firefly Hh reporter signal, replicate 1 | firefly Hh reporter signal, replicate 2 | firefly Hh reporter signal, replicate 3 | Renilla reference signal, replicate 1 | Renilla reference signal, replicate 2 | outcome |
| --- | --- | --- | --- | --- | --- | --- | --- |
| CG8135 + BBIP1 | DRSC12739 | 1.19e5 | – | – | 2816 | – | inactive |
| CG8135 + BBIP1 | DRSC16384 | 61568 | 91492 | – | 1882 | 2470 | inactive |
| l(3)psg2 (GeneID 38630) | DRSC10484 | 1.02e5 | 91109 | – | 3632 | 2713 | inactive |
| Lcp65Ab2 + Lcp65Ab1 | DRSC10340 | 58572 | 55937 | – | 6132 | 4149 | inactive |
| Lcp65Ab2 + Lcp65Ab1 | DRSC10343 | 52709 | 41517 | – | 5218 | 3290 | inactive |
| CG13203 (GeneID 36229) | DRSC06327 | 87015 | 62656 | – | 2134 | 4636 | inactive |
| Ip6k (GeneID 37465) | DRSC04054 | 56640 | 33523 | – | 2918 | 1926 | inactive |
| CG42857 (GeneID 10178851) | DRSC12750 | 1.88e5 | – | – | 2461 | – | inactive |
| CG17211 (GeneID 34639) | DRSC02587 | 1.24e5 | 58987 | – | 3600 | 5680 | inactive |
| COX5BL (GeneID 33919) | DRSC02123 | 1.34e5 | 70653 | – | 2520 | 7096 | inactive |
| Idgf2 (GeneID 34979) | DRSC03350 | 79097 | 54075 | – | 3682 | 2304 | inactive |
| CG42795 (GeneID 41252) | DRSC12772 | 2.15e5 | – | – | 4880 | – | inactive |
| CG42795 (GeneID 41252) | DRSC15533 | 58808 | 60492 | – | 1627 | 1926 | inactive |
| CG17806 (GeneID 42142) | DRSC15276 | 1.54e5 | 77232 | – | 6856 | 3168 | inactive |
| smash (GeneID 40583) | DRSC12139 | 1.27e5 | 90659 | – | 4684 | 1916 | inactive |
| smash (GeneID 40583) | DRSC12141 | 1.25e5 | 80480 | – | 4568 | 2038 | inactive |
| smash (GeneID 40583) | DRSC12239 | 88857 | 1.47e5 | – | 2336 | 4273 | inactive |
| smash (GeneID 40583) | DRSC12289 | 1.30e5 | 1.92e5 | – | 3997 | 5288 | inactive |
| mnd (GeneID 39625) | DRSC11370 | 97459 | – | – | 993 | 2234 | inactive |
| CG8230 (GeneID 35897) | DRSC05931 | 67436 | 41955 | – | 1625 | 3627 | inactive |

Taken from above.
For “Renilla reference signal, replicate 1”, CG17211 (GeneID 34639) [DRSC02587] is entered as 3600
Under “outcome”, smash (GeneID 40583) [DRSC12141] shows inactive
CG8230 (GeneID 35897) [DRSC05931], outcome: inactive
Entry for smash (GeneID 40583) [DRSC12289] under “outcome”: inactive
Result for CG8135 + BBIP1 [DRSC16384] under “firefly Hh reporter signal, replicate 2”: 91492
For “outcome”, CG42857 (GeneID 10178851) [DRSC12750] reads inactive

The list goes on.
| Gene | amplicon | firefly Hh reporter signal, replicate 1 | firefly Hh reporter signal, replicate 2 | firefly Hh reporter signal, replicate 3 | Renilla reference signal, replicate 1 | Renilla reference signal, replicate 2 | outcome |
| --- | --- | --- | --- | --- | --- | --- | --- |
| uno (GeneID 35778) | DRSC07244 | 74907 | 68026 | – | 1824 | 7421 | inactive |
| Acsx4 (GeneID 42355) | DRSC14311 | 5.80e5 | 72680 | – | 27920 | 2112 | inactive |
| CG6659 (GeneID 32854) | DRSC20003 | 1.54e5 | 80835 | – | 3561 | 1697 | inactive |
| Cpr62Bc (GeneID 38241) | DRSC08545 | 1.21e5 | 71056 | – | 3208 | 5250 | inactive |
| CG9822 (GeneID 37440) | DRSC04568 | 85309 | 79074 | – | 1639 | 5388 | inactive |
| Prp4k (GeneID 38032) | DRSC08144 | 62665 | 40055 | – | 3368 | 2243 | inactive |
| levy (GeneID 37728) | DRSC04289 | 88394 | 76348 | – | 1712 | 6506 | inactive |
| Hsc70-2 (GeneID 41609) | DRSC16710 | 79143 | 50368 | – | 2424 | 1571 | inactive |
| kraken (GeneID 33265) | DRSC00824 | 1.20e5 | 1.14e5 | – | 2822 | 2632 | inactive |
| CG4115 (GeneID 41499) | DRSC15545 | 68884 | 1.20e5 | – | 2662 | 3717 | inactive |
| fbl (GeneID 46234) | DRSC11886 | 95561 | 1.04e5 | – | 3363 | 2769 | inactive |
| CG5498 (GeneID 40250) | DRSC11608 | 1.04e5 | 55824 | – | 4034 | 1991 | inactive |
| CCT8 (GeneID 35882) | DRSC07130 | 46357 | 35920 | – | 1908 | 1648 | inactive |
| RpL9 (GeneID 34526) | DRSC03418 | 39847 | 17714 | – | 2359 | 3601 | active |
| Acp33A + CG15841 (retired record) | DRSC01859 | 1.03e5 | 56440 | – | 2820 | 5584 | inactive |
| CG17562 (GeneID 42021) | DRSC15243 | 63802 | 1.42e5 | – | 2192 | 4231 | inactive |
| Gal (GeneID 33839) | DRSC03134 | 1.08e5 | 49461 | – | 2968 | 4787 | inactive |
| Tmtc1 (GeneID 33455) | DRSC00147 | 6.34e5 | 2.16e5 | – | 35204 | 8579 | inactive |
| Tmtc1 (GeneID 33455) | DRSC00151 | 6.19e5 | 1.48e5 | – | 32003 | 6203 | inactive |
| Tmtc1 (GeneID 33455) | DRSC00314 | 1.57e5 | 1.21e5 | – | 3556 | 3034 | inactive |
| Tmtc1 (GeneID 33455) | DRSC00411 | 1.19e5 | 99184 | – | 2681 | 2506 | inactive |
| CG7483 (GeneID 40987) | DRSC16249 | 1.69e5 | 2.48e5 | – | 6528 | 7069 | inactive |
| Ir40a (GeneID 35449) | DRSC03732 | 61767 | 52971 | – | 2023 | 4993 | inactive |
| Ir40a (GeneID 35449) | DRSC03733 | 58061 | 61212 | – | 1571 | 5881 | inactive |
| neb (GeneID 35293) | DRSC03577 | 85930 | 61042 | – | 2695 | 2301 | inactive |
| SdhD (GeneID 42808) | DRSC14215 | 5.42e5 | 1.13e5 | – | 29192 | 3990 | inactive |
| Adi1 (GeneID 326189) | DRSC10945 | 79178 | 67461 | 93798 | 5206 | 7137 | inactive |
| C15 (GeneID 42544) | DRSC13495 | 59147 | 2.13e5 | – | 12608 | 4610 | inactive |
| C15 (GeneID 42544) | DRSC14169 | 4.85e5 | 1.53e5 | – | 26276 | 3155 | inactive |
| CG7295 (GeneID 33365) | DRSC00699 | 74938 | 75841 | – | 1735 | 1704 | inactive |
| Kap-alpha1 (GeneID 40160) | DRSC11356 | 94246 | 96134 | – | 3723 | 3424 | inactive |
| Veneno (GeneID 41000) | DRSC16537 | 56850 | 1.20e5 | – | 1376 | 3280 | inactive |
| Rrp4 (GeneID 37731) | DRSC04434 | 82265 | 55506 | – | 3805 | 2625 | inactive |
| CG14693 (GeneID 41299) | DRSC14916 | 1.03e5 | 1.48e5 | – | 1981 | 4081 | inactive |
| CG31462 (retired record) (GeneID 326143) | DRSC14359 | 48453 | 1.07e5 | – | 1264 | 3323 | inactive |
| brm (GeneID 39744) | DRSC11330 | 62714 | – | – | 2113 | 2421 | inactive |
| Tig (GeneID 33896) | DRSC03456 | 48650 | 41581 | – | 1072 | 5317 | inactive |
